According to US20220331416A1, “COMBINED EXPRESSION OF A CHIMERIC CD3 FUSION PROTEIN AND AN ANTI-CD3-BASED BISPECIFIC T CELL ACTIVATING ELEMENT” (BIOTHEUS (SUZHOU) CO., LTD., priority 2019, published 2022):
For at least one compound, name, drawing or mass did not settle the structure.

Key:
[1] = tested on: CAIX CAB-T co-cultured with CAIX+MDA-MB231; assay: Dasatinib inhibition of cytokine release of CAIX CAB-T; format: cell-based; details: activated CAIX CAB-T
[2] = tested on: HER2 CAB-T co-cultured with SKBR3; assay: Dasatinib inhibition of killing activity of HER2 CAB-T (LDH)
[3] = tested on: HER2 CAB-T co-cultured with SKBR3; assay: Dasatinib inhibition of cytokine release of HER2 CAB-T; format: cell-based; details: activated HER2 CAB-T
[4] = tested on: CAIX CAB-T co-cultured with CALX+MDA-MB231

Cc1nc(Nc2ncc(C(=O)Nc3c(C)cccc3Cl)s2)cc(N2CCN(CCO)CC2)n1 [dasatinib]
IFN-γ secretion (FIG. 25B legend) [1]: inhibits IFN-γ secretion of activated CAIX CAB-T at low concentrations | IL-2 secretion (FIG. 25A legend) [1]: inhibits IL-2 secretion of activated CAIX CAB-T at low concentrations | killing activity (FIG. 26C legend) [2]: inhibits the killing activity of HER2 CAB-T at low concentrations | IFN-γ secretion (FIG. 26B legend) [3]: inhibits IFN-γ secretion of activated HER2 CAB-T at low dose concentrations | IL-2 secretion (FIG. 26A legend) [3]: inhibits IL-2 secretion of activated HER2 CAB-T at low concentrations | killing activity (FIG. 25C legend) [4]: inhibits the killing activity of CAIX CAB-T at low concentrations
